Source: patent US20080280293A1
Results are given in words; binding and its absence hold for the method and conditions named. Binding seen in cells or lysates may run through a third protein. Some results given as binding are weak or reduced against the parent protein; the word gives no strength. Tags and fused reporters may be left off the sequences shown.

Amino acid sequences for entries named in this document (tags omitted). A change or cut given only in a name is not applied to a line headed by its entry.
UniProt O60603: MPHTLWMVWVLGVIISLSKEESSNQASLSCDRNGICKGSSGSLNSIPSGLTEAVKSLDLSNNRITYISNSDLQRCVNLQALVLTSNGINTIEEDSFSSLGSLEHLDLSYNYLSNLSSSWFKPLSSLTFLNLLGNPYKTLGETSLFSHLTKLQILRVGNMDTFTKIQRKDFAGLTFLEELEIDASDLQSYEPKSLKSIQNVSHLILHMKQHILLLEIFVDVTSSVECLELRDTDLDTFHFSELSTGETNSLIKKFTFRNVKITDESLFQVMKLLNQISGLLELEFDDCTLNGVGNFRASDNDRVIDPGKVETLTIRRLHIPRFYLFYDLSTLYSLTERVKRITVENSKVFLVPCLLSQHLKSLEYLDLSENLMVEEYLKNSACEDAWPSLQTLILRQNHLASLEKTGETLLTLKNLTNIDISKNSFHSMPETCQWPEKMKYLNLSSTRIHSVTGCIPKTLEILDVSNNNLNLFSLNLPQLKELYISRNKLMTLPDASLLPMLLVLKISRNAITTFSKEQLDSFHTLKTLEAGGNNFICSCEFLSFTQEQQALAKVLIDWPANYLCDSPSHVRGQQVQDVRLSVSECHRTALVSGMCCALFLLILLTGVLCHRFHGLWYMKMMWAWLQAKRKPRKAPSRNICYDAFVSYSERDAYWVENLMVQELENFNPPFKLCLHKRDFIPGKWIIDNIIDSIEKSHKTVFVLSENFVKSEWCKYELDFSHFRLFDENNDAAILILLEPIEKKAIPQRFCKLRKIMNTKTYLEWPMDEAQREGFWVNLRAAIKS

Columns and labels:
[1] = target: T1, HA-tag-fused TLR1 (human) (UniProt Q15399); test: co-immunoprecipitation from transfected COS7 cells: IP with FLAG antibody, western blot with HA antibody
T1 sequence: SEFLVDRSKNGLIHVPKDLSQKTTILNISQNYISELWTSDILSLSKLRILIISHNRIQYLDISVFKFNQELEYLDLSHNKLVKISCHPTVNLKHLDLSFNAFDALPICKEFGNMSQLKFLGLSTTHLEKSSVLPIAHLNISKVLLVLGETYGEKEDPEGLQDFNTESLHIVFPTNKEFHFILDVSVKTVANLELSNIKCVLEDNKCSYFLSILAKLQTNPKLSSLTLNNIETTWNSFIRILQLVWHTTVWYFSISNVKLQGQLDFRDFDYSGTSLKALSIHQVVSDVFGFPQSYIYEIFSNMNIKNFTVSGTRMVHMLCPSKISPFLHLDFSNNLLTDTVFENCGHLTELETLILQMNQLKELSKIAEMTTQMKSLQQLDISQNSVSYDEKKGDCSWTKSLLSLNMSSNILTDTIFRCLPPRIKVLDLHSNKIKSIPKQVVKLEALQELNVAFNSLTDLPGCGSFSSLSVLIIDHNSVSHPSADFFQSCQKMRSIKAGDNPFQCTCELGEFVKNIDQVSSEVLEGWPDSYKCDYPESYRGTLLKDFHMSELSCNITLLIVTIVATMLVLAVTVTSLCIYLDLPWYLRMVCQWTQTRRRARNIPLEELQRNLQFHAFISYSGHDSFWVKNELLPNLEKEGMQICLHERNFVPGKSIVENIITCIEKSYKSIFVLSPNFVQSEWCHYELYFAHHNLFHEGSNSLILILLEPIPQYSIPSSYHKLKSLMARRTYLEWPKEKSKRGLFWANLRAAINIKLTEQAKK

[2] = target: HA-tag-fused TLR2 (human) (UniProt O60603); test: as above
[3] = target: intracellular domain of TLR2 fused with S-tag (human); test: co-immunoprecipitation from co-transfected COS7 cells: IP with S-Protein, western blot with S-Protein or anti-FLAG antibody

- binding [1]: binds
- binding [2]: binds
- binding [3]: binds
B1: FLAG-tag-fused galectin-2 (protein, not shown: small tags and cut ends)
chain: MTGELEVKNMDMKPGSTLKITGSIADGTDGFVINLGQGTDKLNLHFNPRFSESTIVCNSLDGSNWGQEQREDHLCFSPGSEVKFTVTFESDKFKVKLPDGHELTFPNRLGHSHLSYLSVRGGFNMSSFKLKE
